This is an account of results in the supplement of paper PMC8728848.

Holding throughout (experiment): glycan array binding signal (z-score within array); higher = stronger binding
Holding throughout (settings): glycan notation: IUPAC condensed, linker removed

In one assay the target is Fuc(a1-2)Gal(b1-4)Glc. An outline of the steps: (§1)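 Glycan array binding is given as a within-array Z-score, which can be read as non-binding when negative. The arrays, 3228 of them, came from the Consortium for Functional Glycomics database and were retained only where the protein sequence was available. Z-scores were averaged across arrays of the same protein sequence at different concentrations or buffers and across linkers.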

For the next assay, the target named is Fuc(a1-2)Gal(b1-4)Glc6S. An outline of the steps: as §1
The target in the next assay is Fuc(a1-2)Gal(b1-4)GlcNAc. An outline of the steps:
as §1

For assay [1], the target named is Fuc(a1-2)Gal(b1-4)GlcNAc(b1-2)Man. An outline of the steps: as §1
Assay [2] has as its target Fuc(a1-2)Gal(b1-4)GlcNAc(b1-2)Man(a1-3)[Fuc(a1-2)Gal(b1-4)GlcNAc(b1-2)Man(a1-6)]Man(b1-4)GlcNAc(b1-4)GlcNAc. An outline of the steps: as §1
For assay [3], the target named is Fuc(a1-2)Gal(b1-4)GlcNAc(b1-2)Man(a1-3)[Fuc(a1-2)Gal(b1-4)GlcNAc(b1-2)Man(a1-6)]Man(b1-4)GlcNAc(b1-4)[Fuc(a1-6)]GlcNAc. An outline of the steps:
as §1

In assay [4] the target is Fuc(a1-2)Gal(b1-4)GlcNAc(b1-2)[Fuc(a1-2)Gal(b1-4)GlcNAc(b1-4)]Man(a1-3)[Fuc(a1-2)Gal(b1-4)GlcNAc(b1-2)Man(a1-6)]Man(b1-4)GlcNAc(b1-4)GlcNAc. An outline of the steps:
as §1

The target in assay [5] is Fuc(a1-2)Gal(b1-4)GlcNAc(b1-3)Gal(b1-4)GlcNAc. An outline of the steps:
as §1

Assay [6] has as its target Fuc(a1-2)Gal(b1-4)GlcNAc(b1-3)Gal(b1-4)GlcNAc(b1-2)Man(a1-3)[Fuc(a1-2)Gal(b1-4)GlcNAc(b1-3)Gal(b1-4)GlcNAc(b1-2)Man(a1-6)]Man(b1-4)GlcNAc(b1-4)GlcNAc. An outline of the steps: as §1
Assay [7] addresses Fuc(a1-2)Gal(b1-4)GlcNAc(b1-3)Gal(b1-4)GlcNAc(b1-3)Gal(b1-4)GlcNAc. An outline of the steps:
as §1

Assay [8] deals with Fuc(a1-2)Gal(b1-4)GlcNAc(b1-3)GalNAc. An outline of the steps:
as §1

The target of assay [9] is Fuc(a1-2)Gal(b1-4)GlcNAc(b1-3)[Fuc(a1-2)Gal(b1-4)GlcNAc(b1-6)]GalNAc. An outline of the steps: as §1
Assay [10] has as its target Fuc(a1-2)Gal(b1-4)GlcNAc(b1-3)[Fuc(a1-3)[Gal(b1-4)]GlcNAc(b1-6)]Gal(b1-4)Glc. An outline of the steps: as §1
Assay [11] concerns the target Fuc(a1-2)Gal(b1-4)GlcNAc(b1-6)GalNAc. An outline of the steps:
as §1

Assay [12] has as its target Fuc(a1-2)Gal(b1-4)GlcNAc6S. An outline of the steps:
as §1

In assay [13] the target is Fuc(a1-2)Gal(b1-4)[Fuc(a1-3)]GlcNAc. An outline of the steps: as §1
Assay [14] addresses Fuc(a1-2)Gal(b1-4)[Fuc(a1-3)]GlcNAc(b1-2)Man(a1-3)[Fuc(a1-2)Gal(b1-4)[Fuc(a1-3)]GlcNAc(b1-2)Man(a1-6)]Man(b1-4)GlcNAc(b1-4)[Fuc(a1-6)]GlcNAc. An outline of the steps:
as §1

Assay [15] has as its target Fuc(a1-2)Gal(b1-4)[Fuc(a1-3)]GlcNAc(b1-2)[Fuc(a1-2)Gal(b1-4)[Fuc(a1-3)]GlcNAc(b1-4)]Man(a1-3)[Fuc(a1-2)Gal(b1-4)[Fuc(a1-3)]GlcNAc(b1-2)Man(a1-6)]Man(b1-4)GlcNAc(b1-4)GlcNAc. An outline of the steps:
as §1

The target of assay [16] is Fuc(a1-2)Gal(b1-4)[Fuc(a1-3)]GlcNAc(b1-3)Gal(b1-4)[Fuc(a1-3)]GlcNAc. An outline of the steps:
as §1

Assay [17] deals with Fuc(a1-2)Gal(b1-4)[Fuc(a1-3)]GlcNAc(b1-3)Gal(b1-4)[Fuc(a1-3)]GlcNAc(b1-3)Gal(b1-4)[Fuc(a1-3)]GlcNAc. An outline of the steps:
as §1

Assay [18] concerns the target Fuc(a1-2)Gal(b1-4)[Fuc(a1-3)]GlcNAc(b1-3)GalNAc. An outline of the steps:
as §1

In assay [19] the target is Fuc(a1-2)Gal(b1-4)[Fuc(a1-3)]GlcNAc(b1-3)[Neu5Ac(a2-6)Gal(b1-4)GlcNAc(b1-6)]Gal(b1-4)Glc. An outline of the steps:
as §1

The target of assay [20] is Fuc(a1-2)Gal3S(b1-4)GlcNAc. An outline of the steps: as §1

The other results are listed elsewhere or left out.

B1: Epa19 (Candida glabrata) (protein)
chain: MGSSHHHHHHSSGLVPRGSHMASSKDPTRFPIGCSPQVLKTQPGLAVKLYSYGHPVPGCSYITYQYPDFPRSGYKKERKLADITGVNGKIDIDLKPNDPCRVLTGHLPSNYNYPDTLTYTNFTMILYGYFQPKVTGYHTFNLEADDLLFMNLGAGNAFDCCKAESTLDNFGNYQSYSLWGSDYAKANITVFLVSGVYYPIRLFYVNRDNNAVIDFSFTTEFDKEKVHDFTSYFFSASDGEQCPGSV
Consider B1, for which the “glycan array binding signal (z-score)” value was -0.515 with Fuc(a1-2)Gal(b1-4)Glc; 0.445 in the assay with Fuc(a1-2)Gal(b1-4)Glc6S; -0.459 with Fuc(a1-2)Gal(b1-4)GlcNAc; 0.465 in assay [1]; -0.086 in [2]; -0.345 in assay [3]. Further, the “glycan array binding signal (z-score)” value in assay [4] is -0.171; in [5], -0.585; in assay [6] it was -1.01; in assay [7] it was -0.05; in [8], 0.004; in [9] it was -0.055. In addition, the “glycan array binding signal (z-score)” value in [10] is 0.603; in assay [11] it was 1.5; in assay [12], -0.293; in assay [13] it was -0.107; in assay [14], 0.201; in [15], 1.36. For the same molecule, the “glycan array binding signal (z-score)” value in assay [16] is -0.047; in assay [17], -0.669; in assay [18], 1; in [19], -0.518; in assay [20], -0.533.
